# Data published in the supplement of paper PMC6411743.
# ± gives the standard deviation of the averaged measurements. This is one part of the list.
# Key:
# Assay in all cases: NP40-soluble protein abundance relative to vehicle (solubility fold change) (ratio); higher = more soluble protein in presence of GTP
# RNF25 = target: T1, RNF25 (UniProt Q96BH1)
# T1 sequence (whole entry): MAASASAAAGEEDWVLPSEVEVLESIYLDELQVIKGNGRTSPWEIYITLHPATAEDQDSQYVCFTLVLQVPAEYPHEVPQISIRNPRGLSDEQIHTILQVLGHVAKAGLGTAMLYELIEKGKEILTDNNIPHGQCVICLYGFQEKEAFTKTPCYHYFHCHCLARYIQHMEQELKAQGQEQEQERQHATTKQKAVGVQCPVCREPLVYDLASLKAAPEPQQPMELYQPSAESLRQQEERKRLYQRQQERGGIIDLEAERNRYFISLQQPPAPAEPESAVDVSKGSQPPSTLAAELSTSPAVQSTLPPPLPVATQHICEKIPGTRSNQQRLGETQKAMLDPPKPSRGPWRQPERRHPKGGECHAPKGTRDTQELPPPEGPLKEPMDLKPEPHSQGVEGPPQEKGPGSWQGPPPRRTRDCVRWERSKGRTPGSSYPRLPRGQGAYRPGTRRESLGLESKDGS
# In short: (§1)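 Values are fold changes against the detergent-processed vehicle, based on vsn-normalised intensities. Jurkat crude lysate was treated at eight concentrations from 0.1 to 10 mM (10 min at room temperature, then 3 min at 37 °C), solubilised with 0.8% NP40 and benzonase, ultracentrifuged and analysed by TMT-labelled LC-MS/MS over three independent experiments.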
# SYMPK = target: T2, SYMPK (UniProt Q92797)
# T2 sequence (whole entry): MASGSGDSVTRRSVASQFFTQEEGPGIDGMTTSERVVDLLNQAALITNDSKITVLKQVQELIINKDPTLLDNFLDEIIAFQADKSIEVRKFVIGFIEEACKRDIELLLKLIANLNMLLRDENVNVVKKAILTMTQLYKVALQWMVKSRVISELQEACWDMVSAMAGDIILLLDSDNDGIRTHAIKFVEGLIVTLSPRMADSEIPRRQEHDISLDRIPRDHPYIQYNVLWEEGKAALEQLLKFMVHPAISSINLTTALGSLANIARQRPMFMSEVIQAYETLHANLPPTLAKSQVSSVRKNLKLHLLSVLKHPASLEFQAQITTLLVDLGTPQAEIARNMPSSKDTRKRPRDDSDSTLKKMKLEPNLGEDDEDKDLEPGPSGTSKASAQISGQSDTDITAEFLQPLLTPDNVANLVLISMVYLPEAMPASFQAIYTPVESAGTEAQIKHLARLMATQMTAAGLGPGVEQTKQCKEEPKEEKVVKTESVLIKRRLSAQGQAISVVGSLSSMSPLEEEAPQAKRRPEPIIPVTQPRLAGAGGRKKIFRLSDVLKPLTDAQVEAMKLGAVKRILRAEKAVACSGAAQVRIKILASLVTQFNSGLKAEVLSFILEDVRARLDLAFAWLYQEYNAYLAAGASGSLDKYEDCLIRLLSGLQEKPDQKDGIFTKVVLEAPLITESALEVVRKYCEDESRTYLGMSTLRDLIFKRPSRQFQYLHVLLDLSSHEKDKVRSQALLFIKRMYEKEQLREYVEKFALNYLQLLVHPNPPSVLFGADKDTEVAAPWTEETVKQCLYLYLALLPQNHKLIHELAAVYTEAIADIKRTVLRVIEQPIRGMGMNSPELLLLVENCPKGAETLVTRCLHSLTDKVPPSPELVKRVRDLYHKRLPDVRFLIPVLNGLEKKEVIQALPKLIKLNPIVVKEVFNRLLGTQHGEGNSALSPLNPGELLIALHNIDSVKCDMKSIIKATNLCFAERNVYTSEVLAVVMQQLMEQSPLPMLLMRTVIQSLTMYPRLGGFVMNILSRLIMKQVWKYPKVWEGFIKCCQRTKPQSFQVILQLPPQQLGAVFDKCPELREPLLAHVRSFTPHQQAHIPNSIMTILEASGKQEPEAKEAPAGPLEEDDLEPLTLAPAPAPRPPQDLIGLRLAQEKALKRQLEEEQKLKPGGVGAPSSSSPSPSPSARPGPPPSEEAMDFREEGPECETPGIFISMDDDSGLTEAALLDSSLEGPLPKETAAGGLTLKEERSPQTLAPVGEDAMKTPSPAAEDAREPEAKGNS
# In short: as §1
# UBLCP1 = target: T3, UBLCP1 (UniProt Q8WVY7)
# T3 sequence (whole entry): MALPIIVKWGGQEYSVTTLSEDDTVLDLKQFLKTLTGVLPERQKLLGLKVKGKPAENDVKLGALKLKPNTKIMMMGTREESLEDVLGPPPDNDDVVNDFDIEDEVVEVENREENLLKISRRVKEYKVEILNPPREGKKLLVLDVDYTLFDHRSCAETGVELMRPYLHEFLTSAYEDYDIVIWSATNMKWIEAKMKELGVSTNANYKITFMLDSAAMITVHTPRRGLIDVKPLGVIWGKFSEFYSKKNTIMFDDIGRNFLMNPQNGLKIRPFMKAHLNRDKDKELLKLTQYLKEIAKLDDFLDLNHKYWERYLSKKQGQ
# In short: as §1
# [1] = target: T4, UniProt Q8WVX9 and related entries
# T4 sequence (whole entry): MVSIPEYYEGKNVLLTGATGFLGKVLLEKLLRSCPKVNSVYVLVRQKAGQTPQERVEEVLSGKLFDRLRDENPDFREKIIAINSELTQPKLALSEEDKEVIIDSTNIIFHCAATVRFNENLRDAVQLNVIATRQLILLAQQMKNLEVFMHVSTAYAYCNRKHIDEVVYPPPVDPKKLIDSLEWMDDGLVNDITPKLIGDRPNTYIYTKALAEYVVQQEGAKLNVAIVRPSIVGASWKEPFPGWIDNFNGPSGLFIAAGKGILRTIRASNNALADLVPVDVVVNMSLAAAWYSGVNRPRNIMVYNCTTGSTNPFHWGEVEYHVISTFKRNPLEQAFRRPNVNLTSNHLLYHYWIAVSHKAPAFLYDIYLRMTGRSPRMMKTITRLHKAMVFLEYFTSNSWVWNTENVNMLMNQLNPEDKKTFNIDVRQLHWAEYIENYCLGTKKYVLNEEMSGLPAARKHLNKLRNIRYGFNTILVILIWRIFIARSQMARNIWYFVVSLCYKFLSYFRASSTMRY
# In short: as §1
# UniProt Q8WWW0-2 = target: T5, UniProt Q8WWW0-2
# T5 sequence (whole entry): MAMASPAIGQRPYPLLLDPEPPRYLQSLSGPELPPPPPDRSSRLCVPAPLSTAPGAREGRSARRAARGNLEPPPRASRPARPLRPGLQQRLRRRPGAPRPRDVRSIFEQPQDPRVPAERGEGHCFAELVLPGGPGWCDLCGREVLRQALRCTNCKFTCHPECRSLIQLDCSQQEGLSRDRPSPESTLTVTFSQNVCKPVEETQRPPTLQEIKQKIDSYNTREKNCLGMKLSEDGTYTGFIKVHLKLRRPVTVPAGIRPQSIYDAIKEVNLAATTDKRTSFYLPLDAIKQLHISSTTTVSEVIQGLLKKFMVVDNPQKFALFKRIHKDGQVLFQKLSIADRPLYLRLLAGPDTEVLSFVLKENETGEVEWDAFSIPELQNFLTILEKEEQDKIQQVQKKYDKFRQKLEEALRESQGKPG
# In short: as §1
# [2] = target: T6, UniProt Q8WYQ5 and related entries
# T6 sequence (whole entry): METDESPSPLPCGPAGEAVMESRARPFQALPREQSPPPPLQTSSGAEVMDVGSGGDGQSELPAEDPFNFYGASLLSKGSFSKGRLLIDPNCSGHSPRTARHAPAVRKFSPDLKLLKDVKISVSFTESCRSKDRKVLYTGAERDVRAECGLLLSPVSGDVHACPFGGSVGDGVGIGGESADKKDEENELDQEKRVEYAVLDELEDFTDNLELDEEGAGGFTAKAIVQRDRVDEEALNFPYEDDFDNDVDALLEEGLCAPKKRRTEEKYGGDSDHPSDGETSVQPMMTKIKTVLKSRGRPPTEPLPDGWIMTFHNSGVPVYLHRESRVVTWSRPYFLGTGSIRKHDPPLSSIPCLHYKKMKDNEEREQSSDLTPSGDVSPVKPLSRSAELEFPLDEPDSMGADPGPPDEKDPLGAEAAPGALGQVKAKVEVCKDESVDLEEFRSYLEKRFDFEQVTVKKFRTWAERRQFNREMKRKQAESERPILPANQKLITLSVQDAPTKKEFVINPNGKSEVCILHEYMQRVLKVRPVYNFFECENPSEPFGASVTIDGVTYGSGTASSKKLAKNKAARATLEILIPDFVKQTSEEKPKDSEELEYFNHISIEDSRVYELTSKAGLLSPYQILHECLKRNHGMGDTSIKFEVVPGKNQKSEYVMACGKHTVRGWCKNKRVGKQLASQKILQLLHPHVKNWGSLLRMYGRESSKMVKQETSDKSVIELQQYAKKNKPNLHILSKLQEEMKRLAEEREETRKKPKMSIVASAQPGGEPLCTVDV
# In short: as §1
smiles,measurement,setting,value
Nc1nc2c(ncn2[C@@H]2O[C@H](COP(=O)(O)OP(=O)(O)OP(=O)(O)O)[C@@H](O)[C@H]2O)c(=O)[nH]1 [guanosine triphosphate],NP40-soluble protein abundance,RNF25; concentration: 1mM,1.03 ± 0.045
same,NP40-soluble protein abundance,RNF25; concentration: 2mM,1.01 ± 0.037
same,NP40-soluble protein abundance,RNF25; concentration: 4mM,1.07 ± 0.11
same,NP40-soluble protein abundance,RNF25; concentration: 6mM,0.985 ± 0.073
same,NP40-soluble protein abundance,RNF25; concentration: 8mM,1.06 ± 0.037
same,NP40-soluble protein abundance,RNF25; concentration: 10mM,0.988 ± 0.014
same,NP40-soluble protein abundance,SYMPK; concentration: 0.1mM,1.04 ± 0.029
same,NP40-soluble protein abundance,SYMPK; concentration: 0.5mM,1.02 ± 0.037
same,NP40-soluble protein abundance,SYMPK; concentration: 1mM,1.04 ± 0.034
same,NP40-soluble protein abundance,SYMPK; concentration: 2mM,1.02 ± 0.03
same,NP40-soluble protein abundance,SYMPK; concentration: 4mM,1.04 ± 0.024
same,NP40-soluble protein abundance,SYMPK; concentration: 6mM,1.03 ± 0.026
same,NP40-soluble protein abundance,SYMPK; concentration: 8mM,1.04 ± 0.038
same,NP40-soluble protein abundance,SYMPK; concentration: 10mM,1.02 ± 0.019
same,NP40-soluble protein abundance,UBLCP1; concentration: 0.1mM,0.976 ± 0.018
same,NP40-soluble protein abundance,UBLCP1; concentration: 0.5mM,0.989 ± 0.022
same,NP40-soluble protein abundance,UBLCP1; concentration: 1mM,0.914 ± 0.015
same,NP40-soluble protein abundance,UBLCP1; concentration: 2mM,0.853 ± 0.02
same,NP40-soluble protein abundance,UBLCP1; concentration: 4mM,0.818 ± 0.044
same,NP40-soluble protein abundance,UBLCP1; concentration: 6mM,0.863 ± 0.026
same,NP40-soluble protein abundance,UBLCP1; concentration: 8mM,0.832 ± 0.065
same,NP40-soluble protein abundance,UBLCP1; concentration: 10mM,0.803 ± 0.063
same,NP40-soluble protein abundance,[1]; concentration: 0.1mM,1.11 ± 0.074
same,NP40-soluble protein abundance,[1]; concentration: 0.5mM,1.18 ± 0.14
same,NP40-soluble protein abundance,[1]; concentration: 1mM,0.998 ± 0.079
same,NP40-soluble protein abundance,[1]; concentration: 2mM,1.05 ± 0.18
same,NP40-soluble protein abundance,[1]; concentration: 4mM,1.05 ± 0.11
same,NP40-soluble protein abundance,[1]; concentration: 6mM,1.04 ± 0.14
same,NP40-soluble protein abundance,[1]; concentration: 8mM,1.01 ± 0.037
same,NP40-soluble protein abundance,[1]; concentration: 10mM,1 ± 0.1
same,NP40-soluble protein abundance,UniProt Q8WWW0-2; concentration: 0.1mM,0.947 ± 0.062
same,NP40-soluble protein abundance,UniProt Q8WWW0-2; concentration: 0.5mM,0.923 ± 0.046
same,NP40-soluble protein abundance,UniProt Q8WWW0-2; concentration: 1mM,0.932 ± 0.027
same,NP40-soluble protein abundance,UniProt Q8WWW0-2; concentration: 2mM,0.933 ± 0.065
same,NP40-soluble protein abundance,UniProt Q8WWW0-2; concentration: 4mM,0.909 ± 0.047
same,NP40-soluble protein abundance,UniProt Q8WWW0-2; concentration: 6mM,0.914 ± 0.062
same,NP40-soluble protein abundance,UniProt Q8WWW0-2; concentration: 8mM,0.892 ± 0.026
same,NP40-soluble protein abundance,UniProt Q8WWW0-2; concentration: 10mM,0.939 ± 0.037
same,NP40-soluble protein abundance,[2]; concentration: 0.1mM,1.13 ± 0.1
same,NP40-soluble protein abundance,[2]; concentration: 0.5mM,1.09 ± 0.05
same,NP40-soluble protein abundance,[2]; concentration: 1mM,1.16 ± 0.049
same,NP40-soluble protein abundance,[2]; concentration: 2mM,1.17 ± 0.045

# Given tab-delimited: entries from further up.
smiles	measurement	setting	value
Nc1nc2c(ncn2[C@@H]2O[C@H](COP(=O)(O)OP(=O)(O)OP(=O)(O)O)[C@@H](O)[C@H]2O)c(=O)[nH]1 [guanosine triphosphate]	NP40-soluble protein abundance	RNF25; concentration: 8mM	1.06 ± 0.037
same	NP40-soluble protein abundance	SYMPK; concentration: 10mM	1.02 ± 0.019
same	NP40-soluble protein abundance	UBLCP1; concentration: 0.5mM	0.989 ± 0.022
